{
  "sequences": {"note": "Amino acid sequences for entries named in this document (tags omitted). A change or cut given only in a name is not applied to a line headed by its entry.", "UniProt P63034": "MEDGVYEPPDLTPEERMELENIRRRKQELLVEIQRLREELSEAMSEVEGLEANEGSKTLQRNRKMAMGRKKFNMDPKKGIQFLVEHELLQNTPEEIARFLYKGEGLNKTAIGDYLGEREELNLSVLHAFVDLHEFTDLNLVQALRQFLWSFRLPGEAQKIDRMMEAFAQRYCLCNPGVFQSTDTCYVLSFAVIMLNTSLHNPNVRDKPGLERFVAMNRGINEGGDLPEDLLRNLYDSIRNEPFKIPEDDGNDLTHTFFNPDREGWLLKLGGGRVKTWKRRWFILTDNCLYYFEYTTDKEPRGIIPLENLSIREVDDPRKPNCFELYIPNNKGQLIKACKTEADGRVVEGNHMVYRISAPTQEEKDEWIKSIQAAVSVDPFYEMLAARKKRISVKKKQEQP", "UniProt P57110": "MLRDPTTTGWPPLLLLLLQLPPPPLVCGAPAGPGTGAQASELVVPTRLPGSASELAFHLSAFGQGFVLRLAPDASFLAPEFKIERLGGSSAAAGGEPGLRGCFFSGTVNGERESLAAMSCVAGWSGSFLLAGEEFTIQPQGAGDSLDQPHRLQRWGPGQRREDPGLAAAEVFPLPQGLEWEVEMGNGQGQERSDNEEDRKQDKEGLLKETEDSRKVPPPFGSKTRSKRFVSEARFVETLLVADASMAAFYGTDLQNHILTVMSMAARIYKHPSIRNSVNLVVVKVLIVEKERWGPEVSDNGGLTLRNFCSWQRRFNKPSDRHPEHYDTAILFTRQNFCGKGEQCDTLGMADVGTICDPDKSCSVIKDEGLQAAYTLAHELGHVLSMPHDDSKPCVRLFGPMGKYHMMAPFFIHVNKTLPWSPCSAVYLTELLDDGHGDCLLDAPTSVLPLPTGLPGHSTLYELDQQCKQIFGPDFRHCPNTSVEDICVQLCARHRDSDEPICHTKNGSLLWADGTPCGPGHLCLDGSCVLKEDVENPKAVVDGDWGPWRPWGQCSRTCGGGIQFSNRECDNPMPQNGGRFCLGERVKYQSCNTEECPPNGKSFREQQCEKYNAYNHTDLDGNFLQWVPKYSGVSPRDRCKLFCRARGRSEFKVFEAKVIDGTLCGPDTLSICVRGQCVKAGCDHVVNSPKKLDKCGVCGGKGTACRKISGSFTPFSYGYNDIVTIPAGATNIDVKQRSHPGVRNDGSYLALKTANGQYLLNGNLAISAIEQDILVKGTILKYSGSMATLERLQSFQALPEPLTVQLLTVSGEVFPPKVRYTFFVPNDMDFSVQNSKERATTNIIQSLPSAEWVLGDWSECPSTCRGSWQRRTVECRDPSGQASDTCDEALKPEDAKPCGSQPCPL", "UniProt P56393": "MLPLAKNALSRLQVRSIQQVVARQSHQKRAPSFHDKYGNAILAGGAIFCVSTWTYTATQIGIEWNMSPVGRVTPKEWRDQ", "UniProt P59017, whole entry": "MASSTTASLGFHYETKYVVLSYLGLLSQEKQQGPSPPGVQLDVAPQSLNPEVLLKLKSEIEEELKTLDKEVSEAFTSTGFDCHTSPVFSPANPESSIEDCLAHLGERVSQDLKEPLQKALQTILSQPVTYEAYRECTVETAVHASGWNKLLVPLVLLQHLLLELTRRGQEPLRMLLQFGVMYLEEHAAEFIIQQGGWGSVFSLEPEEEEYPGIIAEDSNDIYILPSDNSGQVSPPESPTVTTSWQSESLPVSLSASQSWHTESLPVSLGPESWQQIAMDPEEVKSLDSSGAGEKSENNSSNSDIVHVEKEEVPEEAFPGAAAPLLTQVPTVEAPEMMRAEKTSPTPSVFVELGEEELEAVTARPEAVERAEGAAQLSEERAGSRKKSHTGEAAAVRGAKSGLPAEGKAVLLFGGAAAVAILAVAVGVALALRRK", "UniProt P62774, whole entry": "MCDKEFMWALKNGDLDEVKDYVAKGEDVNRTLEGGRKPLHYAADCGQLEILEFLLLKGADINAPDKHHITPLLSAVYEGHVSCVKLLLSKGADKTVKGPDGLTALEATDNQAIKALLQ", "UniProt P57780, whole entry": "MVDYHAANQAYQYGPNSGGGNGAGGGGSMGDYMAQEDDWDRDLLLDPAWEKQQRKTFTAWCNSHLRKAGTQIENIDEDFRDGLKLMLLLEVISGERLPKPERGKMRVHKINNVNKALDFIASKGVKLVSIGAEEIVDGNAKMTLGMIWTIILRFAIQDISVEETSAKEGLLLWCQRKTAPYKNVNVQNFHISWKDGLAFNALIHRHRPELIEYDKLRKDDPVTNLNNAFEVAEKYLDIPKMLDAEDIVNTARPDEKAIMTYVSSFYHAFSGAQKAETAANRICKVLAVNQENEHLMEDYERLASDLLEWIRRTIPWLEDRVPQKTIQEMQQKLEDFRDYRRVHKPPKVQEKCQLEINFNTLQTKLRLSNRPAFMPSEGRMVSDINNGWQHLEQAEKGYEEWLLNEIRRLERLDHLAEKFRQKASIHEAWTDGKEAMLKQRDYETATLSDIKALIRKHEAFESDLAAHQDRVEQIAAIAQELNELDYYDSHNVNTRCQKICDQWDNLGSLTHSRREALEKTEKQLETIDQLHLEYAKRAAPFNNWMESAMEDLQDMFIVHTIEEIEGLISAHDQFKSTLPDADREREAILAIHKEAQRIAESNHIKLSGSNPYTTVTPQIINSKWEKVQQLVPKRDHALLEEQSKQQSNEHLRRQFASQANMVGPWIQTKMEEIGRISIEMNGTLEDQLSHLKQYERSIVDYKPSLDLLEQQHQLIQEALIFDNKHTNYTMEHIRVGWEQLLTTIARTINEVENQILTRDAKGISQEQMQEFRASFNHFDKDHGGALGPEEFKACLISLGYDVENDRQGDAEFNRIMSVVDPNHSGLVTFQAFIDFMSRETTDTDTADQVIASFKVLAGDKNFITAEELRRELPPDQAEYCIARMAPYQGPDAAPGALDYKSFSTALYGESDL", "UniProt P63089": "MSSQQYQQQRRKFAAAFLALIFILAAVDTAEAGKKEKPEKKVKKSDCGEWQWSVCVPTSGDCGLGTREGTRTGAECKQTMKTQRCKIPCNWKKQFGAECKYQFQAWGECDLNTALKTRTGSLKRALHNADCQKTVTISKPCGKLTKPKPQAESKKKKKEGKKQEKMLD", "UniProt P62077": "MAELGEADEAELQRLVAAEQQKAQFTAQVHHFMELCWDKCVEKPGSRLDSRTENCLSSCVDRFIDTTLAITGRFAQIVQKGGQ", "UniProt P62962, whole entry": "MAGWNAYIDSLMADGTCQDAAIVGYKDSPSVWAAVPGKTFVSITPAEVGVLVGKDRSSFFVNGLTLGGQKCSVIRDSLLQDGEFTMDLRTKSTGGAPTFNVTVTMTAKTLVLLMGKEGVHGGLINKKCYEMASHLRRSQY", "UniProt P59997": "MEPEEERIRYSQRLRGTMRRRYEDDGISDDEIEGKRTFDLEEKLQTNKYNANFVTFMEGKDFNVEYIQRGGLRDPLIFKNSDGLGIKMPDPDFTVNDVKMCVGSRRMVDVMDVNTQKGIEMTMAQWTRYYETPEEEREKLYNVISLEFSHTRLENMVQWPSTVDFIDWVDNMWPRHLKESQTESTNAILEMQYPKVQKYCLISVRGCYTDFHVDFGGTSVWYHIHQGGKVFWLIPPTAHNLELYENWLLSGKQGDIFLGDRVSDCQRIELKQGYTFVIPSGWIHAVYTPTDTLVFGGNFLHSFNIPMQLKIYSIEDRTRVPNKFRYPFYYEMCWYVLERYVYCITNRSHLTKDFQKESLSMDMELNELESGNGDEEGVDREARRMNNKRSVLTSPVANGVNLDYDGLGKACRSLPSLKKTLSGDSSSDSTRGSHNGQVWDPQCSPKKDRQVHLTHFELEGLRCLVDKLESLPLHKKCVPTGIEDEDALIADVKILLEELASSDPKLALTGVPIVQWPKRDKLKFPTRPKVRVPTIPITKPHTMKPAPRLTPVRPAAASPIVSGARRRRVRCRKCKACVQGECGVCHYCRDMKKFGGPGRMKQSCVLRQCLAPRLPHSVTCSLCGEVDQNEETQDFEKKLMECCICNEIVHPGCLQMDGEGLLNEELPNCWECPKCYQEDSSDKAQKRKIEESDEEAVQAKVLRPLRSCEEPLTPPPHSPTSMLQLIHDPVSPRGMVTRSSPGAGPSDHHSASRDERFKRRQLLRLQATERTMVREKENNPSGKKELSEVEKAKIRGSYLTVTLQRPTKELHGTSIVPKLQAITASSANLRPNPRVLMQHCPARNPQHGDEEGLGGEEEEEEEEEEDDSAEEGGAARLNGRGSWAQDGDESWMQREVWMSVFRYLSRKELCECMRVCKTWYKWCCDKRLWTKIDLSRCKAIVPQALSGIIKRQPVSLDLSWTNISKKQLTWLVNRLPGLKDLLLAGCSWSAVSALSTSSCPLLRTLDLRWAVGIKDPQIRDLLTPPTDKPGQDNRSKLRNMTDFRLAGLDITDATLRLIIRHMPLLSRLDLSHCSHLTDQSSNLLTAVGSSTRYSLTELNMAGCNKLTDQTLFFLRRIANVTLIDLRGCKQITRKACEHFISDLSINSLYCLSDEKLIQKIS", "UniProt P58404": "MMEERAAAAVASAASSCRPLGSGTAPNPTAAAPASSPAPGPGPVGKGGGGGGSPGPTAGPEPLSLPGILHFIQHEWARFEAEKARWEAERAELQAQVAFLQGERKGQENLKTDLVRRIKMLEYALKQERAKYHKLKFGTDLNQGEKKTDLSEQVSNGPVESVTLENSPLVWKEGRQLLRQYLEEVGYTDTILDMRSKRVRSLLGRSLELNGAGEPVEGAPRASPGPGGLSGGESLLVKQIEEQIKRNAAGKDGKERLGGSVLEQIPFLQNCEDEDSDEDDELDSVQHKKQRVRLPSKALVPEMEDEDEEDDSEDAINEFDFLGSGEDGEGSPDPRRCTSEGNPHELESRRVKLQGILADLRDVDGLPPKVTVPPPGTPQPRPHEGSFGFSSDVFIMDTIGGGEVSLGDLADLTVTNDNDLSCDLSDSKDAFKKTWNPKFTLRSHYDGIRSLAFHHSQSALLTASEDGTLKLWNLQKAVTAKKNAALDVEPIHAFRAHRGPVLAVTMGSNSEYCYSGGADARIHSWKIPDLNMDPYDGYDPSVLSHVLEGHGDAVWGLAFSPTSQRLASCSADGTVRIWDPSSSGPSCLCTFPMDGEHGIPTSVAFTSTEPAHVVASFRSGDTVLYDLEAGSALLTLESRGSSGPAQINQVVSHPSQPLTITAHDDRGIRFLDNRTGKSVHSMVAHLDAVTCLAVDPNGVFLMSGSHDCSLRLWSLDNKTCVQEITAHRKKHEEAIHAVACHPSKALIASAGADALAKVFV", "UniProt P57724": "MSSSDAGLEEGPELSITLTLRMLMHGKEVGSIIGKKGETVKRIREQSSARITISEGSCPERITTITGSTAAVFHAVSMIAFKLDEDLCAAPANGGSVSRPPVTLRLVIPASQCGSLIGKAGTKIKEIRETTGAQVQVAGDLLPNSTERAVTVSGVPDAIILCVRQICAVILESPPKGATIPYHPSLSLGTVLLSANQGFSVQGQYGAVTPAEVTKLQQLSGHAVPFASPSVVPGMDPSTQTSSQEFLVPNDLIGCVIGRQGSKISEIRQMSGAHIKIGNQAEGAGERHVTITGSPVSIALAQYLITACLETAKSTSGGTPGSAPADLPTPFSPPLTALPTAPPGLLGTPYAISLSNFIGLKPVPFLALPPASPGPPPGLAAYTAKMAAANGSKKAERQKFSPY"},
  "source": "the supplement of paper PMC12819154",
  "about": "“High-throughput peptide-centric local stability assay extends protein–ligand identification to membrane proteins, tissues and bacteria” (Nature Structural & Molecular Biology, 2025)",
  "note": "Some of the results follow. Small differences around the control level are noise.",
  "data": [
    {"compound": "CN[C@@H]1C[C@H]2O[C@@](C)([C@@H]1OC)n1c3ccccc3c3c4c(c5c6ccccc6n2c5c31)C(=O)NC4 [staurosporine]", "assay": "log2 fold change of tryptic peptide abundance, ligand vs vehicle (limited proteolysis) (log2 ratio); higher = more trypsin-susceptible (destabilized)", "conditions": "ligand concentration: 20 uM; sample: mouse liver crude lysate; replicate design: treated separately", "values": [
      {"target": "UniProt P63034 (peptide sequence: MELENIR, peptide start residue: 17)", "log2 fold change": 0.079},
      {"target": "UniProt P57110 (peptide sequence: RFVSEAR, peptide start residue: 228)", "log2 fold change": -0.225},
      {"target": "UniProt P56393 (peptide sequence: RAPSFHDK, peptide start residue: 29)", "log2 fold change": 0.364},
      {"target": "UniProt P59017 (peptide sequence: SEIEEELK, peptide start residue: 58)", "log2 fold change": -0.341},
      {"target": "UniProt P62774 (peptide sequence: DYVAKGEDVNR, peptide start residue: 20)", "log2 fold change": -0.194},
      {"target": "UniProt P57780 (peptide sequence: RTIPWLEDRVPQK, peptide start residue: 312)", "log2 fold change": -0.478},
      {"target": "UniProt P63089 (peptide sequence: TVTISKPCGK, peptide start residue: 134)", "log2 fold change": -0.224},
      {"target": "UniProt P62077 (peptide sequence: LVAAEQQK, peptide start residue: 15)", "log2 fold change": -0.0846},
      {"target": "UniProt P62962 (peptide sequence: CYEMASHLRR, peptide start residue: 128)", "log2 fold change": -0.283},
      {"target": "UniProt P59997 (peptide sequence: ELHGTSIVPK, peptide start residue: 809)", "log2 fold change": 0.362},
      {"target": "UniProt P58404 (peptide sequence: LKFGTDLNQGEK, peptide start residue: 135)", "log2 fold change": -0.489},
      {"target": "UniProt P57724 (peptide sequence: IGNQAEGAGER, peptide start residue: 277)", "log2 fold change": -0.382}
    ]}
  ]
}
